{
  "source": "patent US20220175764A1",
  "about": "(priority 2019, published 2022)",
  "assay_type_in_all_cases": "in vivo, mouse",
  "key": {"DIAMOND™ mice [1]": {"tested_on": "DIAMOND™ mice", "test": "Serum LFT / hepatic panel, Abaxis VS2 (Example 2)", "settings": "serum at necropsy", "experimental": "(§1) Lipid (total cholesterol, LDL, HDL, triglycerides, HDL calc.) and hepatic (ALB, AST, ALT, Alk, Phos, BUN, GGT, T Bil) panels were performed as described below. Due to natural variations in mice physiology extra serum might not be available to repeat testing.\nAbaxis VS2 blood chemistry analyzers were used for measuring LFTs. This instrument is FDA approved for veterinary use, CLIA waived, and self-calibrating. It is the equivalent instrument to the Abaxis Piccolo instrument for human diagnostic testing. Phenobarbital test rotors (catalog #500-0049) were used which measure AST, ALT, ALP, GGT, ALB, and Total Bilirubin. The reactions are colorimetric, read automatically by the VS2 instrument, and results printed on a sticker which is attached to the necropsy specimen sheet and then entered into Excel. A minimum of 100 microliters of sample is needed for this test rotor, which may be either undiluted serum or diluted serum, in a ratio of 1:1 50 microliters of serum: 50 microliters of PBS without affecting accuracy of measurement of analytes. Significant hemolysis may render samples un-readable."}, "DIAMOND™ mice [2]": {"tested_on": "DIAMOND™ mice", "test": "Serum lipid profile, Alere Cholestech LDX (Example 2)", "settings": "serum at necropsy", "experimental": "as §1\n40-50 microliters of thawed serum were placed into the sample well of an AL-10-991 test cassette, then the test cassette placed into the Alere Cholestech LDX blood lipid analyzer. The Alere Cholestech is FDA approved and CLIA waived for human use at POC and is used by numerous drug companies and CROs in preclinical studies because it only requires a small amount of blood. It may be used with whole blood, serum or plasma for humans, but mouse blood clots much faster and so whole blood in our experience has a higher failure rate. We therefore used serum.\nReadouts were: • 1. Total cholesterol (T-chol) • 2. Triglycerides (TRIGS) (45 lower LOD) • 3. Glucose (standard range) • 4. HDL (100 upper LOD) • 5. LDL (calculated T-Chol—HDL)"}, "DIAMOND™ mice [3]": {"tested_on": "DIAMOND™ mice", "test": "Gut permeability by serum dextran competitive ELISA after 4 kDa dextran gavage, WDSW-fed DIAMOND mice (Example 1)", "experimental": "Pioglitazone was dosed at 30 mg/kg for the entire 12 weeks. Gut permeability (GP) was assessed twice at 12 weeks and 20 weeks by measuring dextran absorption into the bloodstream using a competitive enzyme-linked immunosorbent assay (ELISA) with 20 μL of serum collected by tail nick. Mice were gavaged with 4 kDa dextran at 600 mg/kg; the more permeable the gut, the more dextran is detected in serum. Results between dose groups were compared using Student's 2-tailed t-test, and pair-wise analysis was performed on serial measurements from week-12 to week-20 to assess drug impact on progression of GP over time. Serum and liver tissues were collected at necropsy, formalin-fixed, paraffin-embedded (FFPE) slides stained with H&E and Sirius Red, and liver pathology was assessed."}, "DIAMOND™ mice [4]": {"tested_on": "DIAMOND™ mice", "test": "Leaky gut assay / Dextran Assay - gut permeability at week 12 and week 20 (Example 2)", "experimental": "At 8 weeks on diet (t=8), mice were randomized into experimental groups based on the most recent body weight. […] Gut integrity/permeability was measured with the leaky gut assay on week 12 (one month on test article treatment) and on week 20 immediately prior to sacrifice. At each assay time point, between 0.2 ml and 0.4 ml of 4 kDa dextran solution (2 g/10 ml PBS solution, 0.2 g/mL) was orally gavaged to mice. After 4 hours, blood was collected from the tail vein and processed to serum. Dextran concentration in samples was measured by ELISA.\nGut integrity/permeability was measured with the leaky gut assay at two time points (12-week and 20-week) by competitive Dextran ELISA, 4 weeks after initial drug dosing with test article or vehicles, and immediately prior to sacrifice. Fresh fecal pellets were collected prior to each assay and placed into RNAlater and frozen (for possible future gut microbiome analysis).\n• a. The leaky gut assay was performed at week 12 (one month on treatment) and immediately prior to sacrifice. • b. The procedure for the dextran was as follow: • i. 2 g of 4 kD dextran was weighed into a static free weigh dish. • ii. The dextran was mixed into a 10 ml of PBS solution. • iii. Between 0.2 ml and 0.4 ml of dextran solution was orally gavaged into mice. Each mouse staggered by 10 minutes to maintain blood dextran consistency during blood collection. • iv. 4 hours post gavage lidocaine applied to the tails of the mice in the order that they were gavaged. • v. The mice were lightly restrained in a mouse restraint device. • vi. After 5 minutes 70% alcohol was applied to a cotton swab and used to wipe off the lidocaine. • vii. Sterile scissors were used to perform a tail nick. • viii. 140 μl of whole blood was collected into a capillary tube. • ix. The capillary tubes were spun at 3,000 RPM for 8 minutes. • x. The capillary tubes were broken at the supernatant line and the serum was blown into an Eppendorf tube and snap frozen in liquid nitrogen."}, "DIAMOND™ mice [5]": {"tested_on": "DIAMOND™ mice", "test": "Blood glucose and ketones from tail nick (Example 2)", "settings": "at necropsy", "experimental": "Following completion of the dosing period on t=20, the mice were placed into a clean cage and fasted for six (6) hours prior to euthanasia. Animals were euthanized by exposing them to carbon dioxide as an anesthetic followed by cardiac puncture for exsanguination. Cervical dislocation was performed as a secondary means of euthanasia. A volume of 3-5 μl of whole blood were collected from a tail nick premortem and used for glucose and ketone testing. A second volume of 300-500 μl of blood collected at euthanasia were processed to serum, aliquoted into small vials and flash frozen in liquid nitrogen for further tests including liver function and lipid tests as per study protocol. Remaining serum was stored frozen for further possible testing.\n• a. Immediately prior to euthanasia a tail nick was performed. Whole blood was used to measure ketones and glucose. • b. Euthanasia—The mice were placed into a clean cage and fasted for 6 hours prior to euthanasia. Blood collection took place during euthanasia via cardiac puncture. The blood was collected into micro-serum separator tubes and processed to serum by centrifugation under 4 degrees Celsius for 15 minutes at 5,000 RMP, aliquoted in 100 μl aliquots, and serum flash frozen. Serum samples were stored frozen at −80° C. until use. […]"}, "DIAMOND™ mice [6]": {"tested_on": "DIAMOND™ mice", "test": "Liver histology scoring, H&E and Sirius Red (Example 2)", "settings": "end of study", "experimental": "Liver samples were fixed in 10% neutral buffered formalin for 36-48 hours depending on the size of the sample before being placed into 70% alcohol. The samples were then processed into FFPE blocks. The FFPE blocks were sectioned and three (3) slides were cut per block and submitted for H&E and Sirius Red staining, and subsequent histology analysis. The samples' identity was blinded at the time of shipment for unbiased scoring.\nSlide evaluation and scoring include NAS component scoring (fibrosis, steatosis grade and percentage, inflammation, ballooning), NAS score, SAF activity score, Fibrosis NASH CRN Score, Perisinusoidal Fibrosis score, and NASH category score. A histopathology sub-report is to be prepared containing scores and representative photographic images from each group."}},
  "note": "“Also recorded” adds a separate entry of the source. At least one compound was matched to its structure with a doubt left.",
  "data": [
    {"smiles": "CCc1ccc(CCOc2ccc(CC3SC(=O)NC3=O)cc2)nc1", "note": "(stereo not drawn) [Pioglitazone]", "values": [
      {"measurement": "ALP vs control vehicles", "setting": "DIAMOND™ mice [1]", "result": "small increase in ALP"},
      {"measurement": "triglycerides vs vehicle control (Arm-5)", "setting": "DIAMOND™ mice [2]", "result": "significantly decreased"},
      {"measurement": "GP compared to VC", "setting": "DIAMOND™ mice [3]; Results Analysis 1, 20 weeks", "result": "improved GP"},
      {"measurement": "serum dextran concentration relative to vehicle (significance)", "setting": "DIAMOND™ mice [3]; Results Analysis 2, Week 12", "result": "no significant differences"},
      {"measurement": "serum dextran concentration (significance)", "setting": "DIAMOND™ mice [3]; Results Analysis 2, Week 20", "result": "significant reduction"},
      {"measurement": "GP at week-20 compared to vehicle control", "setting": "DIAMOND™ mice [4]; after 12 weeks of treatment", "result": "significantly lower GP"},
      {"measurement": "GP week-20 vs week-12", "setting": "DIAMOND™ mice [4]; mice with data at both time points, paired t-test", "result": "trends toward lower GP"},
      {"measurement": "GP at week-20 compared with the MNTX, Rifaximin (and combination) arms", "setting": "DIAMOND™ mice [4]; week-20", "result": "not any lower; also recorded: no greater"},
      {"measurement": "Ketones blood level vs vehicle control (Arm-5)", "setting": "DIAMOND™ mice [5]", "result": "slightly decreased; also recorded: decreased"},
      {"measurement": "Lobular inflammation vs control Arm-5", "setting": "DIAMOND™ mice [6]", "result": "trending toward reducing lobular inflammation"},
      {"measurement": "NAFLD Activity Score (NAS) vs control Arm-5", "setting": "DIAMOND™ mice [6]", "result": "trending toward reducing NAS"},
      {"measurement": "Perisinusoidal fibrosis vs control Arm-5", "setting": "DIAMOND™ mice [6]", "result": "significant/complete decrease"},
      {"measurement": "Steatosis, Activity and Fibrosis (SAF) score vs control Arm-5", "setting": "DIAMOND™ mice [6]", "result": "trending toward reducing SAF"},
      {"measurement": "prevalence of NASH (disease category), in words", "setting": "DIAMOND™ mice [6]", "result": "no NASH specimen"},
      {"measurement": "prevalence of NASH (disease category), in words", "setting": "DIAMOND™ mice [6]; listed as pioglitazone", "result": "no prevalence of NASH"}
    ]}
  ]
}
